Laboratory results: PubChem BioAssay AID1259424 (University of Nebraska Medical Center, 2018)
Assay: 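Find knockdowns that reproduce the expression shifts seen after KSR1 loss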 (primary screen). Cells: human HCT116 colon cancer cells. Knock-down reagent: siRNA pool against human genes, 50 nM. Measurement: 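Six signature mRNAs by branched-DNA multiplex assay, scaled to two housekeeping genes and non-targeting median, log2; matched to mean KSR1 knockdown profile by Pearson correlation and euclidean distance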. Direction: mean correlation with KSR1 profile and KSR1 correlation: higher = expression change more like KSR1 knockdown; mean distance from KSR1 profile: higher = expression change less like KSR1 knockdown.
In all, the deposit lists about 14,000 reagents; below is a part drawn at random. 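Higher correlation or smaller distance means closer resemblance to KSR1 loss; control wells, including KSR1 knockdowns, recur on many plates.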 Further read-outs or replicates are left out here. Not given: the time to read-out.

| mean correlation with KSR1 profile | mean distance from KSR1 profile | KSR1 correlation, replicate 1 | Target gene |
| --- | --- | --- | --- |
| 0.15 | 1.72 | -0.0112 | MYO1G (GeneID 64005) |
| 0.463 | 3.25 | 0.599 | HIC1 (GeneID 3090) |
| -0.0679 | 1.74 | -0.0396 | STYX (GeneID 6815) |
| 0.0571 | 1.35 | -0.0184 | NAALAD2 (GeneID 10003) |
| -0.781 | 2.33 | -0.853 | NOL6 (GeneID 65083) |
| 0.829 | 0.843 | 0.88 | GADD45B (GeneID 4616) |
| 0.0323 | 2.22 | 0.209 | NDUFS5 (GeneID 4725) |
| -0.341 | 2.76 | -0.215 | RSL1D1 (GeneID 26156) |
| 0.205 | 3.47 | -0.0563 | DCX (GeneID 1641) |
| 0.0228 | 1.71 | 0.0906 | ATAD5 (GeneID 79915) |
| -0.206 | 1.74 | -0.403 | GTF3C5 (GeneID 9328) |
| 0.855 | 0.925 | 0.627 | FAAP100 (GeneID 80233) |
| -0.425 | 2.47 | -0.143 | GFER (GeneID 2671) |
| -0.183 | 2.4 | -0.549 | PROSER1 (GeneID 80209) |
| 0.633 | 0.798 | 0.361 | PRSS1 (GeneID 5644) |
| 0.167 | 2.26 | 0.000773 | HPCA (GeneID 3208) |
| 0.524 | 1.27 | 0.515 | UGT8 (GeneID 7368) |
| 0.333 | 1.93 | 0.33 | OPRK1 (GeneID 4986) |
| 0.878 | 0.641 | 0.714 | IL22RA1 (GeneID 58985) |
| 0.444 | 1.96 | 0.584 | PAK2 (GeneID 5062) |
| -0.192 | 2.73 | -0.173 | SOHLH2 (GeneID 54937) |
| 0.175 | 1.63 | 0.21 | SUFU (GeneID 51684) |
| -0.519 | 2.15 | -0.411 | URI1 (GeneID 8725) |
| 0.554 | 1.71 | 0.627 | TAS2R40 (GeneID 259286) |
| 0.219 | 2.37 | 0.343 | HSPD1 (GeneID 3329) |
| -0.0306 | 1.49 | 0.137 | ATOX1 (GeneID 475) |
| 0.559 | 0.933 | 0.533 | RCN1 (GeneID 5954) |

Ordered by “KSR1 correlation, replicate 1” (highest first): some entries from above.
| mean correlation with KSR1 profile | mean distance from KSR1 profile | KSR1 correlation, replicate 1 | Target gene |
| --- | --- | --- | --- |
| 0.855 | 0.925 | 0.627 | FAAP100 (GeneID 80233) |
| 0.633 | 0.798 | 0.361 | PRSS1 (GeneID 5644) |
| -0.425 | 2.47 | -0.143 | GFER (GeneID 2671) |
| -0.183 | 2.4 | -0.549 | PROSER1 (GeneID 80209) |

The list goes on:
| mean correlation with KSR1 profile | mean distance from KSR1 profile | KSR1 correlation, replicate 1 | Target gene |
| --- | --- | --- | --- |
| 0.466 | 2.1 | 0.337 | GGT5 (GeneID 2687) |
| 0.0742 | 1.69 | 0.0852 | KIAA0040 (GeneID 9674) |
| 0.194 | 0.902 | 0.444 | DEF6 (GeneID 50619) |
| -0.177 | 3.31 | -0.00438 | TSPAN8 (GeneID 7103) |
| 0.0328 | 2.23 | 0.409 | ECD (GeneID 11319) |
| -0.0649 | 1.45 | -0.278 | MYH3 (GeneID 4621) |
| -0.444 | 2.44 | -0.265 | PSMD9 (GeneID 5715) |
| -0.106 | 1.46 | -0.167 | SELENOK (GeneID 58515) |
| -0.118 | 2.47 | -0.0849 | YBX2 (GeneID 51087) |
| -0.646 | 2 | -0.684 | RGN (GeneID 9104) |
| -0.137 | 1.02 | 0.0609 | PPIF (GeneID 10105) |
| 0.458 | 1.91 | 0.564 | ZMAT4 (GeneID 79698) |
| -0.15 | 2.11 | 0.258 | BRF2 (GeneID 55290) |
| 0.701 | 0.843 | 0.712 | TFB2M (GeneID 64216) |
| -0.185 | 1.72 | -0.31 | POFUT2 (GeneID 23275) |
| 0.0205 | 2.31 | -0.141 | CST6 (GeneID 1474) |
| -0.187 | 2.28 | 0.0115 | PCNX1 (GeneID 22990) |
| -0.202 | 2.87 | -0.17 | JAG2 (GeneID 3714) |
| -0.122 | 2.2 | -0.0296 | DDN (GeneID 23109) |
| 0.499 | 3.4 | 0.541 | GGH (GeneID 8836) |
| 0.451 | 1.61 | 0.45 | CDHR5 (GeneID 53841) |
| 0.202 | 2.01 | 0.193 | GJB6 (GeneID 10804) |
| -0.163 | 3.33 | -0.18 | RP1 (GeneID 6101) |
